Results reported in article PMC3241699.
No constants are given. Whether binding was seen depends on the method and setting. Some binding calls cover weakened binding; strength is not graded here. Sequences can lack the tags named with a protein.

Target: T1, yeast Nip7p fused to the DNA binding domain of lexA (yeast (S. cerevisiae)) (UniProt Q08962)
T1 sequence: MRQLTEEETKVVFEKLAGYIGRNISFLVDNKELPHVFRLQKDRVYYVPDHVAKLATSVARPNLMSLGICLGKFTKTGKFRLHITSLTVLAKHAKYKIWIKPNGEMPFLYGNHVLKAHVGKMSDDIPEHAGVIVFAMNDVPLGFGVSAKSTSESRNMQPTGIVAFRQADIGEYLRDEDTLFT
Experiment: two-hybrid; yeast strain L40; lexA DNA-binding domain fusion as bait, GAL4 activation domain fusion (pACT2) as prey; reporters HIS3 (growth with 3-aminotriazole) and lacZ (X-Gal filter assay)

B1: yeast Nop8p fused to activation domain of GAL4 (protein, UniProt Q08287 1-484)
chain: MDSVIQKRIFVGNIFHNADDCYSELLDRFGKFGDCQDFQFEKHNHFAFIDIRFNDEADFNKLRKSFNNVKFKGNILKVDEAKPNWESTWAVQHAKDLKEDIILNAKMKKKNWQHYKKMENVAKSWKDHKEVIAGRMREAPRKRSQLRNITFRINVNGSLKVYKCYKTKLWGYERNKELNDLVYKFTNNFWKNGYNHIVDRLDYSRAVKTVRFKNGLKQLTVSKDENVCSGEMDSDENMSEEEKEKNNVILNDLLKDFDFDKPMTLNDSDEELLTEQRKGEEEEEEEEEKEVNAPEYENVNKTKDQSTLPQEKPEERKEQDEGDGQEDNEFIPTFTKEIGQGTISNTETLRNLFNPNEAEPVSQFKLIEDSDNDIDHAKDVDVNQLEEEVSKSSDTLGLTSAPVPHVSRDKDNKNFLFFPHLQSPFLVGQTQLSKVRAPGRETMLSNWDEEFWANRGNWTRDMRRKMKDALKHRKRKQSKSGLLL
In the case of B1, the binding is reported as “binds”.
